In article PMC5940416:
Results are given in words; binding and its absence hold for the method and conditions named. In cells and extracts the contact can be indirect. Some results given as binding are weak or reduced against the parent protein; the word gives no strength. For part of these data: Sequences can lack the tags named with a protein.

The chains behind the UniProt entries cited, without tags or fusion partners.
UniProt O95373: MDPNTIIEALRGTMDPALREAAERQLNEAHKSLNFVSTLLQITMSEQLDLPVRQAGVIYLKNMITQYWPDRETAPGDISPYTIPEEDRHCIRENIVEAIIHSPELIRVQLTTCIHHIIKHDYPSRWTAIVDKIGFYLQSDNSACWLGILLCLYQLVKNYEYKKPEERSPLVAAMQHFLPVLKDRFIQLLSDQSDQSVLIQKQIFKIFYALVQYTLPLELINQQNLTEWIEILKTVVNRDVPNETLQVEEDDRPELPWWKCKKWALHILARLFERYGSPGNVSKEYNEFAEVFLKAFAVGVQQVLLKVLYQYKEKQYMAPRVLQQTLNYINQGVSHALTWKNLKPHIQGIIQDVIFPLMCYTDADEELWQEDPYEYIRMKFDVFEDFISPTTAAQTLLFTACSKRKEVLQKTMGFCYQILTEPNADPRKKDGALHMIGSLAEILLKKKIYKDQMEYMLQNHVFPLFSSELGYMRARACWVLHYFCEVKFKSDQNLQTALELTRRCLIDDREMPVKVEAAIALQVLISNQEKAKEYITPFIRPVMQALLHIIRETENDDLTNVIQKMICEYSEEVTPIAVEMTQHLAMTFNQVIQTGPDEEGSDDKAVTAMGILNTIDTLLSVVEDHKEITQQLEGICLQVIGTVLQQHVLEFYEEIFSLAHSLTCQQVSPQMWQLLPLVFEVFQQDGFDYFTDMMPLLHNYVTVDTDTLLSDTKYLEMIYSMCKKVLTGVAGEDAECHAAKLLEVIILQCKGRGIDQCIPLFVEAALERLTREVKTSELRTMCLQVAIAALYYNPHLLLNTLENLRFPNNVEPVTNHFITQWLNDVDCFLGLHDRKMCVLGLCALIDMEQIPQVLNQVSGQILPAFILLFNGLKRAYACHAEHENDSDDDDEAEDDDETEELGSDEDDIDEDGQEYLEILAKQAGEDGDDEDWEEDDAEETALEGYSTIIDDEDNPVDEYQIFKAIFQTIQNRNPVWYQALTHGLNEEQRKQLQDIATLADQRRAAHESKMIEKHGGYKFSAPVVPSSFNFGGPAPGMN

Legend:
[1] = target: importin-7/RanBP7 (IPO7) (human (endogenous in PLC/PRF/5 and Huh7)) (UniProt O95373); assay: co-IP; endogenous proteins; ~200 ug whole cell lysate (IP lysis buffer, protease inhibitors) of PLC/PRF/5 and Huh7 cells, for p-Erk and IPO7 from cells infected with empty or MTBP lentiviral vector; protein-specific antibodies overnight at 4 C, protein A/G plus-agarose; western blotting; isotype controls
[2] = target: importin-7/RanBP7 (IPO7) (human (endogenous in PLC/PRF/5 and Huh7)) (UniProt O95373); assay: co-IP; FLAG-tagged MTBP constructs overexpressed in Huh7 (MTBP^NLS also in PLC/PRF/5) against endogenous IPO7; ~200 ug lysate; FLAG- and IPO7-specific antibodies (anti-FLAG M2 affinity gel for MTBP^NLS); western blotting; isotype controls

Binder	binding [1]	binding [2]
MTBP overexpressed from a lentiviral vector encoding MTBP cDNA (protein, UniProt Q96DY7 1-904) MDRYLLLVIWGEGKFPSAASREAEHGPEVSSGEGTENQPDFTAANVYHLLKRSISASINPEDSTFPACSVGGIPGSKKWFFAVQAIYGFYQFCSSDWQEIHFDTEKDKIEDVLQTNIEECLGAVECFEEEDSNSRESLSLADLYEEAAENLHQLSDKLPAPGRAMVDIILLLSDKDPPKLKDYLPTVGALKHLREWYSAKITIAGNHCEINCQKIAEYLSANVVSLEDLRNVIDSKELWRGKIQIWERKFGFEISFPEFCLKGVTLKNFSTSNLNTDFLAKKIIPSKDKNILPKVFHYYGPALEFVQMIKLSDLPSCYMSDIEFELGLTNSTKQNSVLLLEQISSLCSKVGALFVLPCTISNILIPPPNQLSSRKWKEYIAKKPKTISVPDVEVKGECSSYYLLLQGNGNRRCKATLIHSANQINGSFALNLIHGKMKTKTEEAKLSFPFDLLSLPHFSGEQIVQREKQLANVQVLALEECLKRRKLAKQPETVSVAELKSLLVLTRKHFLDYFDAVIPKMILRKMDKIKTFNILNDFSPVEPNSSSLMETNPLEWPERHVLQNLETFEKTKQKMRTGSLPHSSEQLLGHKEGPRDSITLLDAKELLKYFTSDGLPIGDLQPLPIQKGEKTFVLTPELSPGKLQVLPFEKASVCHYHGIEYCLDDRKALERDGGFSELQSRLIRYETQTTCTRESFPVPTVLSPLPSPVVSSDPGSVPDGEVLQNELRTEVSRLKRRSKDLNCLYPRKRLVKSESSESLLSQTTGNSNHYHHHVTSRKPQTERSLPVTCPLVPIPSCETPKLATKTSSGQKSMHESKTSRQIKESRSQKHTRILKEVVTETLKKHSITETHECFTACSQRLFEISKFYLKDLKTSRGLFEEMKKTANNNAVQVIDWVLEKTSKK	binds	–
FLAG-tagged full-length MTBP (protein, UniProt Q96DY7 1-904) MDRYLLLVIWGEGKFPSAASREAEHGPEVSSGEGTENQPDFTAANVYHLLKRSISASINPEDSTFPACSVGGIPGSKKWFFAVQAIYGFYQFCSSDWQEIHFDTEKDKIEDVLQTNIEECLGAVECFEEEDSNSRESLSLADLYEEAAENLHQLSDKLPAPGRAMVDIILLLSDKDPPKLKDYLPTVGALKHLREWYSAKITIAGNHCEINCQKIAEYLSANVVSLEDLRNVIDSKELWRGKIQIWERKFGFEISFPEFCLKGVTLKNFSTSNLNTDFLAKKIIPSKDKNILPKVFHYYGPALEFVQMIKLSDLPSCYMSDIEFELGLTNSTKQNSVLLLEQISSLCSKVGALFVLPCTISNILIPPPNQLSSRKWKEYIAKKPKTISVPDVEVKGECSSYYLLLQGNGNRRCKATLIHSANQINGSFALNLIHGKMKTKTEEAKLSFPFDLLSLPHFSGEQIVQREKQLANVQVLALEECLKRRKLAKQPETVSVAELKSLLVLTRKHFLDYFDAVIPKMILRKMDKIKTFNILNDFSPVEPNSSSLMETNPLEWPERHVLQNLETFEKTKQKMRTGSLPHSSEQLLGHKEGPRDSITLLDAKELLKYFTSDGLPIGDLQPLPIQKGEKTFVLTPELSPGKLQVLPFEKASVCHYHGIEYCLDDRKALERDGGFSELQSRLIRYETQTTCTRESFPVPTVLSPLPSPVVSSDPGSVPDGEVLQNELRTEVSRLKRRSKDLNCLYPRKRLVKSESSESLLSQTTGNSNHYHHHVTSRKPQTERSLPVTCPLVPIPSCETPKLATKTSSGQKSMHESKTSRQIKESRSQKHTRILKEVVTETLKKHSITETHECFTACSQRLFEISKFYLKDLKTSRGLFEEMKKTANNNAVQVIDWVLEKTSKK	–	binds
ΔC-MTBP, C-terminal region deleted mutant of MTBP, FLAG-tagged (domain or fragment, UniProt Q96DY7 1-759) MDRYLLLVIWGEGKFPSAASREAEHGPEVSSGEGTENQPDFTAANVYHLLKRSISASINPEDSTFPACSVGGIPGSKKWFFAVQAIYGFYQFCSSDWQEIHFDTEKDKIEDVLQTNIEECLGAVECFEEEDSNSRESLSLADLYEEAAENLHQLSDKLPAPGRAMVDIILLLSDKDPPKLKDYLPTVGALKHLREWYSAKITIAGNHCEINCQKIAEYLSANVVSLEDLRNVIDSKELWRGKIQIWERKFGFEISFPEFCLKGVTLKNFSTSNLNTDFLAKKIIPSKDKNILPKVFHYYGPALEFVQMIKLSDLPSCYMSDIEFELGLTNSTKQNSVLLLEQISSLCSKVGALFVLPCTISNILIPPPNQLSSRKWKEYIAKKPKTISVPDVEVKGECSSYYLLLQGNGNRRCKATLIHSANQINGSFALNLIHGKMKTKTEEAKLSFPFDLLSLPHFSGEQIVQREKQLANVQVLALEECLKRRKLAKQPETVSVAELKSLLVLTRKHFLDYFDAVIPKMILRKMDKIKTFNILNDFSPVEPNSSSLMETNPLEWPERHVLQNLETFEKTKQKMRTGSLPHSSEQLLGHKEGPRDSITLLDAKELLKYFTSDGLPIGDLQPLPIQKGEKTFVLTPELSPGKLQVLPFEKASVCHYHGIEYCLDDRKALERDGGFSELQSRLIRYETQTTCTRESFPVPTVLSPLPSPVVSSDPGSVPDGEVLQNELRTEVSRLKRRSKDLNCLYPRKRLVKSESSESL	–	no binding
